System: H. pylori cells
Experiment: Ni content of H. pylori cells by ICP-MS
Format: cell-based

colloidal bismuth subcitrate [CBS]
Normalized Ni content (%) (CBS 2 μM): 86% | Normalized Ni content (%) (CBS 5 μM): 74% | Normalized Ni content (%) (CBS 10 μM): 69% | Normalized Ni content (%) (CBS 20 μM): 88% | nickel content of H. pylori cells (CBS supplemented to culture medium): only a slight decline

From paper PMC5779714, “Metallochaperone UreG serves as a new target for design of urease inhibitor: A novel strategy for development of antimicrobials” (PLoS Biology, 2018)
